According to paper PMC11873243:
Like-named read-outs stand apart in the source and are kept apart here. These are yes or no findings as the source states them, for the method shown. Binding seen in cells or lysates may run through a third protein. Some binding calls cover weakened binding; strength is not graded here.

Sequences of proteins named here, by UniProt entry; tags and fusion partners are left off.
UniProt Q13111: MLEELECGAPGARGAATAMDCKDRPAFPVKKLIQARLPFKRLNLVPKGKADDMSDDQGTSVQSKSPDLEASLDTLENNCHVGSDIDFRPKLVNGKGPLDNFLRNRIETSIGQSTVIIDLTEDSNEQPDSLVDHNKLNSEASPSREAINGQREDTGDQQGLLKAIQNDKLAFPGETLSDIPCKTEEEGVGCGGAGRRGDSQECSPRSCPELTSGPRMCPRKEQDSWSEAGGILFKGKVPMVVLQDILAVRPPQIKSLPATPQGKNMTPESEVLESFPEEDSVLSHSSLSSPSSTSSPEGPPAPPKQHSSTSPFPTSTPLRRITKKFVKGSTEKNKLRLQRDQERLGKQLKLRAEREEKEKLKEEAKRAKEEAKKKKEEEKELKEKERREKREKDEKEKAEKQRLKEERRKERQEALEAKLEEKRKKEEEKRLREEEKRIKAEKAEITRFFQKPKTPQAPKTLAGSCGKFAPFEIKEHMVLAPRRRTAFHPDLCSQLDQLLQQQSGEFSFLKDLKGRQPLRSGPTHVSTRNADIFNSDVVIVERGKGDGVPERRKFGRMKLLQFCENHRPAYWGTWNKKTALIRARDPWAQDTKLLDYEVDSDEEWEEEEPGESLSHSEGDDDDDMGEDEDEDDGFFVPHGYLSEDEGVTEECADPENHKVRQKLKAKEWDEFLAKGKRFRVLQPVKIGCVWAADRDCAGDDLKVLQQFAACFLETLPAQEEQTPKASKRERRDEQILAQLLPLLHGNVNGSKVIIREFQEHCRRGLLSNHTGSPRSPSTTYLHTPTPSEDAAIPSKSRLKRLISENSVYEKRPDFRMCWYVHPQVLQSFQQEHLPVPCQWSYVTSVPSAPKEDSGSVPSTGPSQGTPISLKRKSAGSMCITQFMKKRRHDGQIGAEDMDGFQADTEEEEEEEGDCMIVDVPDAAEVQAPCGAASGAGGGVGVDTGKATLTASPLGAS
UniProt P12004: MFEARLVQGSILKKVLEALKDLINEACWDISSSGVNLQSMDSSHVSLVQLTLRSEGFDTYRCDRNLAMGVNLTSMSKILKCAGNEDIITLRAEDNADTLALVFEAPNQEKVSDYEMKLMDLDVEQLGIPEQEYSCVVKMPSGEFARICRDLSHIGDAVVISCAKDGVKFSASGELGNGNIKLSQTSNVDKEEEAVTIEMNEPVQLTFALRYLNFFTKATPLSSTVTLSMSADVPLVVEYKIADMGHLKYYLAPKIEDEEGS
UniProt Q9NS91: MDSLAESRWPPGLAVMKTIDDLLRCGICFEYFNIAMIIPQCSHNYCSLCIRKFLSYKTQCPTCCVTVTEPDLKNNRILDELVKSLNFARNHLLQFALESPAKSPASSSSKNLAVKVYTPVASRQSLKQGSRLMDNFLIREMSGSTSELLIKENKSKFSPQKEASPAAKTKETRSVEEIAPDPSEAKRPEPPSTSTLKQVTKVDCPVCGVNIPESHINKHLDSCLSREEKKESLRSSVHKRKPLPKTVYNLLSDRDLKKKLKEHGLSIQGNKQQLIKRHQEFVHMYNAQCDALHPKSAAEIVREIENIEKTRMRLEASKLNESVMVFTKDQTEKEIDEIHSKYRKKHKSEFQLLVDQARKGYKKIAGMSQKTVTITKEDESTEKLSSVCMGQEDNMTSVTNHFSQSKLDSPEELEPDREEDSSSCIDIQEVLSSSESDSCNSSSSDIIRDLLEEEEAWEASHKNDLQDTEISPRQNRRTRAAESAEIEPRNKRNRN

Legend:
[1] = target: Chromatin assembly factor 1 subunit A (CHAF1A), endogenous (human (endogenous in KYSE510 and A549)) (UniProt Q13111); assay: proximity ligation; Duolink PLA for CHAF1A and RAD18 in A549 cells
[2] = target: Chromatin assembly factor 1 subunit A (CHAF1A), endogenous (human (endogenous in KYSE510 and A549)) (UniProt Q13111); assay: co-IP; KYSE510 and A549 cell lysates, anti-CHAF1A antibodies and protein A/G magnetic beads, 4 °C overnight; IP buffer 50 mM Tris-HCl pH 7.5, 150 mM NaCl, 0.5% NP-40; blot for RAD18
[3] = target: proliferating cell nuclear antigen (PCNA), endogenous (human (endogenous in HEK293T and KYSE510)) (UniProt P12004); assay: proximity ligation; Duolink PLA on endogenous proteins in KYSE510 cells (shNC or inducible CHAF1A knockdown), with or without 100 J/m^2 UV for 1 h (Pol η also with HU); CSK extraction with formaldehyde
[4] = target: proliferating cell nuclear antigen (PCNA), endogenous (human (endogenous in HEK293T and KYSE510)) (UniProt P12004); assay: as above; remark: listed apart in the source

Molecule	binding [1]	binding [2]	binding [3]	binding [4]
E3 ubiquitin ligase RAD18, endogenous (from UniProt Q9NS91 1-495) (enzyme)	binds	binds	binds	–
REV1, endogenous (enzyme, UniProt Q9UBZ9 1-1251) MRRGGWRKRAENDGWETWGGYMAAKVQKLEEQFRSDAAMQKDGTSSTIFSGVAIYVNGYTDPSAEELRKLMMLHGGQYHVYYSRSKTTHIIATNLPNAKIKELKGEKVIRPEWIVESIKAGRLLSYIPYQLYTKQSSVQKGLSFNPVCRPEDPLPGPSNIAKQLNNRVNHIVKKIETENEVKVNGMNSWNEEDENNDFSFVDLEQTSPGRKQNGIPHPRGSTAIFNGHTPSSNGALKTQDCLVPMVNSVASRLSPAFSQEEDKAEKSSTDFRDCTLQQLQQSTRNTDALRNPHRTNSFSLSPLHSNTKINGAHHSTVQGPSSTKSTSSVSTFSKAAPSVPSKPSDCNFISNFYSHSRLHHISMWKCELTEFVNTLQRQSNGIFPGREKLKKMKTGRSALVVTDTGDMSVLNSPRHQSCIMHVDMDCFFVSVGIRNRPDLKGKPVAVTSNRGTGRAPLRPGANPQLEWQYYQNKILKGKAADIPDSSLWENPDSAQANGIDSVLSRAEIASCSYEARQLGIKNGMFFGHAKQLCPNLQAVPYDFHAYKEVAQTLYETLASYTHNIEAVSCDEALVDITEILAETKLTPDEFANAVRMEIKDQTKCAASVGIGSNILLARMATRKAKPDGQYHLKPEEVDDFIRGQLVTNLPGVGHSMESKLASLGIKTCGDLQYMTMAKLQKEFGPKTGQMLYRFCRGLDDRPVRTEKERKSVSAEINYGIRFTQPKEAEAFLLSLSEEIQRRLEATGMKGKRLTLKIMVRKPGAPVETAKFGGHGICDNIARTVTLDQATDNAKIIGKAMLNMFHTMKLNISDMRGVGIHVNQLVPTNLNPSTCPSRPSVQSSHFPSGSYSVRDVFQVQKAKKSTEEEHKEVFRAAVDLEISSASRTCTFLPPFPAHLPTSPDTNKAESSGKWNGLHTPVSVQSRLNLSIEVPSPSQLDQSVLEALPPDLREQVEQVCAVQQAESHGDKKKEPVNGCNTGILPQPVGTVLLQIPEPQESNSDAGINLIALPAFSQVDPEVFAALPAELQRELKAAYDQRQRQGENSTHQQSASASVPKNPLLHLKAAVKEKKRNKKKKTIGSPKRIQSPLNNKLLNSPAKTLPGACGSPQKLIDGFLKHEGPPAEKPLEELSASTSGVPGLSSLQSDPAGCVRPPAPNLAGAVEFNDVKTLLREWITTISDPMEEDILQVVKYCTDLIEEKDLEKLDLVIKYMKRLMQQSVESVWNMAFDFILDNVQVVLQQTYGSTLKVT	–	–	–	binds
